Measurements reported in PubChem BioAssay AID1224831 (NIAID, 2016)
Purpose: 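Confirming genome-wide hits on LPS-triggered TNF-alpha induction with independent siRNA sequences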 (follow-up of hits). Cells: human THP-1 B5 monocytic leukaemia cells carrying a TNF promoter luciferase reporter, made macrophage-like with PMA. Knock-down reagent: single siRNA against human genes, 50 nM. Time to read-out: about 68 h of knock-down, then 4 h LPS. Conditions: LPS (Salmonella minnesota, TLR-grade) at 10 ng/ml for 4 h; PMA 5 ng/ml present during knock-down. Detection: 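Firefly to renilla luciferase ratio of a TNF promoter reporter after 4 h LPS, scaled to plate median, turned into robust z-score, averaged over replicates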. Scale: TNF reporter z-score: higher = stronger LPS-induced TNF reporter signal; z-score, median over gene's siRNAs: higher = stronger TNF reporter signal across the gene's siRNAs. Rule for the call: 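Two-sided call: reduced or raised TNF reporter signal counts as active once mean z reaches about -1 or below, or about 1.5 or above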. Meaning of the calls: active = changed TNF reporter (either direction); inactive = little change.
In all, the deposit lists about 3,500 reagents; this is a part drawn at random. 731 of them (21%) were called active. 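Active means either lowered or raised reporter signal; the gene-median score did not drive the per-siRNA calls.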 Reagents against one gene are numbered here.

gene symbol,siRNA no.,"TNF reporter z-score, replicate mean","z-score, median over gene's siRNAs",call
DEFB110,1,0.43,0.3,inactive
DEFB110,2,-0.42,0.3,inactive
DEFB110,3,0.17,0.3,inactive
DEFB110,4,1.14,0.3,inactive
DEFB110,5,2.11,0.3,active
DEFB110,6,-0.39,0.3,inactive
ACKR1,1,0.61,0.215,inactive
ACKR1,2,0.18,0.215,inactive
ACKR1,3,0.02,0.215,inactive
ACKR1,4,0.25,0.215,inactive
ACKR1,5,-0.94,0.215,inactive
ACKR1,6,0.51,0.215,inactive
HECA,1,-0.11,1.28,inactive
HECA,2,0.72,1.28,inactive
HECA,3,2.42,1.28,active
HECA,4,-0.57,1.28,inactive
HECA,5,1.84,1.28,active
HECA,6,3.47,1.28,active
UMOD,1,-0.96,-0.15,inactive
UMOD,2,-0.44,-0.15,inactive
UMOD,3,0.9,-0.15,inactive
UMOD,4,-0.44,-0.15,inactive
UMOD,5,0.14,-0.15,inactive
UMOD,6,0.38,-0.15,inactive
BCL2,1,-1.79,-1.31,active
BCL2,2,-2.01,-1.31,active
BCL2,3,-0.92,-1.31,inactive
BCL2,4,-1.71,-1.31,active
BCL2,5,0.52,-1.31,inactive
BCL2,6,0.7,-1.31,inactive
THUMPD2,1,-0.25,0.71,inactive
THUMPD2,2,1.98,0.71,active
THUMPD2,3,-0.49,0.71,inactive
THUMPD2,4,0.08,0.71,inactive
THUMPD2,5,1.34,0.71,inactive
THUMPD2,6,1.47,0.71,inactive
COPB1,1,-0.81,-0.56,inactive
COPB1,2,-1.06,-0.56,active
COPB1,3,-0.31,-0.56,inactive
COPB1,4,0.1,-0.56,inactive
COPB1,5,-0.21,-0.56,inactive
COPB1,6,-1.88,-0.56,active
PCDHA3,1,1.34,-0.47,inactive
PCDHA3,2,-0.13,-0.47,inactive
PCDHA3,3,-0.38,-0.47,inactive
PCDHA3,4,-0.56,-0.47,inactive
PCDHA3,5,-0.7,-0.47,inactive
PCDHA3,6,-0.7,-0.47,inactive
